In PubChem BioAssay AID1347076 (National Center for Advancing Translational Sciences (NCATS), 2019):
The whole screen tested about 400,000 compounds, of which about 13,000 (3.2%) were called active. The shares of active, inactive and inconclusive entries below differ from those in the screen. The call rests on the fitted dose curve; in most records, active means well fitted cell-killing curve with a large enough effect; inconclusive means small, poorly fitted or top-dose-only effect, or effect the other way; inactive means flat fitted curve, though single readings scatter. Where the call is inconclusive, the potency comes from a doubtful curve fit.

experiment: qHTS assay for MDR1-selective chemotherapeutics: Primary screen using the drug-selected MDR subline cells KB-V1; conditions: KB-V1 MDR cells viability, CellTiter-Glo, 72 h; activity change, negative = cytotoxicity: at 46.1 µM (top of the series); further: nearly all actives have a fitted effect of over 60% in size
In short: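 Cytotoxicity via CellTiter-Glo luminescence after 72 h compound exposure at 37 degrees C. Cells: drug-selected KB-V1 line, DMEM phenol-red free plus 10% FBS. Compounds tested at multiple concentrations; normalized data fitted to concentration-effect curves.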
On the % scale 0 is the no-effect control and ±100 the full control effect; potency means the concentration at half of the fitted maximal effect.

Row | SMILES | activity change, negative = cytotoxicity | Potency
1 | NC(N)=NC1=NC(=O)C(Cc2ccccc2)S1 (configuration not stated) | inactive: 16.7% | 
2 | CCn1cc(C(=O)N2CCN(c3ccccn3)CC2)c2cc(OC)c(OC)cc2c1=O |  | active: 16.4 µM
3 | CCn1c(-c2cccc(S(=O)(=O)N3CCCC3)c2)n[nH]c1=S |  | inconclusive: 20.6 µM [cytotoxic, partial curve, poor fit]
4 | S=c1[nH]nc(C2CCCCC2)n1/N=C/c1cccs1 |  | inconclusive: 18.4 µM [cytotoxic, single point]
5 | O=C(CN1CCN(S(=O)(=O)c2ccc(F)cc2)CC1)NC1CC1 | inactive: 12.1% | 
6 | CCN(CC)C(=O)C1=C(C)N(Cc2ccc(OC)cc2)C(=O)C(CC(=O)NC2CCCCC2)C1 (configuration not stated) |  | inconclusive: 25.9 µM [cytotoxic, single point]
7 | Cc1ccc(S(=O)(=O)c2nc(S(=O)(=O)c3ccc(C)cc3)c(NCCCOC(C)C)s2)cc1 |  | inconclusive: 0.206 µM [cytotoxic, partial curve]
8 | COc1ccc(/C=C/c2ccc3cccc(O)c3n2)c(OC)c1OC | inactive: -4.71% | 
9 | CCC(c1nnnn1CCc1ccccc1)N(Cc1ccco1)Cc1cc2cccc(C)c2[nH]c1=O (configuration not stated) |  | active: 7.31 µM
10 | CN1CCN(CCCNC(=O)c2nnc(Cc3c(F)cccc3Cl)o2)CC1 |  | inconclusive: 25.9 µM [rising, partial curve, poor fit]
11 | CC[C@H](C)[C@H](NC(N)=O)C(=O)Nc1ccc2c(c1)OCO2 |  | inconclusive: 16.4 µM [rising, partial curve, poor fit]
12 | Brc1cccc(CSc2nnc(-c3ccncc3)o2)c1 |  | inconclusive: 18.4 µM [cytotoxic, partial curve]
13 | CCOC(=O)c1nc(NNC(C)=O)sc1C | inactive: -1.72% | 
14 | COc1ccc(N2CCN(C(=O)[C@@H](NC(=O)c3cc(OC)cc(OC)c3)C(C)C)CC2)cc1 |  | inconclusive: 2.91 µM [cytotoxic, full curve]
15 | COc1cc(CNCc2ccc(SC)cc2)cc(OC)c1 |  | inconclusive: 18.4 µM [cytotoxic, single point]
16 | O=C(CN1CC[n+]2c(-c3cccs3)csc21)c1ccc(-c2ccccc2)cc1 |  | inconclusive: 29.1 µM [cytotoxic, single point]
17 | Cc1ccc(C=Nc2ccccc2C(N)=O)cc1 |  | active: 5.8 µM
18 | CSCCC(NC(=O)c1ccc([N+](=O)[O-])cc1Cl)C(=O)OCC(=O)NCC(F)(F)F (configuration not stated) |  | inconclusive: 0.461 µM [rising, full curve]
19 | CCOC(=O)c1ccc2nc(C)cc(Nc3ccc(OC(C)C)cc3)c2c1 |  | inconclusive: 29.1 µM [cytotoxic, single point]
20 | COc1ccccc1C(CNc1ccc(S(=O)(=O)N2CCCC2)cc1[N+](=O)[O-])N(C)C (configuration not stated) |  | active: 11.6 µM
21 | Cc1cc(C)c(C#N)c(SCc2ccccc2[N+](=O)[O-])n1 |  | active: 23.1 µM
22 | C=CCOC(=O)C1=C(C)NC(SCC(=O)Nc2nccs2)=C(C#N)C1c1cccs1 (configuration not stated) | inactive: -10.9% | 
23 | O=C(NCCC1=CCCCC1)C(=O)c1c[nH]c2ccccc12 | inactive: -0.87% | 
24 | CSc1nc(C)cc(NC(N)=O)n1 |  | inconclusive: 5.17 µM [rising, partial curve, poor fit]

Row | SMILES | activity change, negative = cytotoxicity | Potency
25 | N#CC1=C(N)NC(=S)C(C(N)=O)C1c1ccccc1F (configuration not stated) | inactive: -6.53% | 
26 | CC[C@@H](C)[C@@H]1CN([C@@H](C)CN2CCC[C@H]2CN2C(N)=NC[C@H]2CC(C)C)C(=N)N1CCCC1CCCC1 | inactive: 0.0002% | 
27 | Fc1ccc(NCc2nnc3n2CCCCC3)cc1 |  | inconclusive: 20.6 µM [rising, single point]
28 | Cc1cccc(C(=O)NCCc2nc3ccccc3n2Cc2ccc(Cl)cc2)c1 |  | active: 10.3 µM
29 | Cc1cc(NC(=O)CCC(=O)N(c2ccc(F)cc2)C2(C(=O)NC3CCCCC3)CCCC2)no1 |  | inconclusive: 14.6 µM [cytotoxic, partial curve, poor fit]
30 | CC(Sc1nc2c(c(=O)[nH]1)CCCC2)C(=O)Nc1cc(C(F)(F)F)ccc1Cl (configuration not stated) | inactive: 5.12% | 
31 | O=C(C[n+]1ccc(/C=C/c2ccccc2)cc1)c1ccc2c(c1)OCCO2 |  | inconclusive: 29.1 µM [rising, single point]
32 | COCCCNC(=O)C1CCC(Cn2c(=O)c3sccc3n(C)c2=O)CC1 (configuration not stated) | inactive: 0.488% | 
33 | Cc1ccc(Cn2c(C)c(CNCC(C)c3ccccc3)c(C(=O)O)c2C)cc1 (configuration not stated) |  | inconclusive: 8.2 µM [rising, partial curve]
34 | COc1cc2c(cc1OC)C1(Nc3c-2c(-c2ccccc2)nn3-c2ccccc2)C(=O)Nc2ccccc21 (configuration not stated) |  | inconclusive: 16.4 µM [cytotoxic, single point]
35 | O=C(NCCO)/C(=C\c1cccc([N+](=O)[O-])c1)NC(=O)c1ccco1 |  | inconclusive: 23.1 µM [rising, single point]
36 | COc1ccccc1C(=O)NCC(C)(C)CN=C1NS(=O)(=O)c2ccccc21 |  | inconclusive: 6.51 µM [cytotoxic, partial curve]
37 | COC(=O)c1ccccc1NS(=O)(=O)c1ccc2c(c1)oc(=O)n2C |  | inconclusive: 29.1 µM [cytotoxic, single point]
38 | CCOC(=O)C1CCN(c2nc3c(S(=O)(=O)c4ccccc4)nnn3c3ccc(Cl)cc23)CC1 | inactive: -13.6% | 
39 | CS(=O)(=O)N1CCN(c2ccc([N+](=O)[O-])c(NCCN3CCOCC3)c2)CC1 |  | inconclusive: 13 µM [cytotoxic, single point]
40 | COc1ccc(CC2(CO)CCN(Cc3cnc(-c4ccccc4C)nc3)CC2)cc1 |  | inconclusive: 4.61 µM [cytotoxic, partial curve, poor fit]
41 | COc1cc(C(=O)NCCOc2cc(C)cc(C)c2)cc(OC)c1OC |  | active: 5.8 µM
42 | C=CCn1c(C)cc(C2=NNC(=NC(C)(C)C)SC2)c1C |  | inconclusive: 16.4 µM [cytotoxic, single point]
43 | CCOC(=O)/C=C/C(=O)OCC(=O)NCc1ccccc1 |  | inconclusive: 29.1 µM [rising, partial curve, poor fit]
44 | Oc1ccccc1Nc1nc(NCC2CCCO2)c2ccccc2n1 (configuration not stated) |  | active: 16.4 µM
45 | COc1cc(CC(CC(=O)c2ccc3c(c2)OCO3)C(=O)O)cc(OC)c1OC (configuration not stated) |  | inconclusive: 29.1 µM [rising, single point]
46 | COc1cccc(N2CCN(CC(=O)N3CCN(S(=O)(=O)c4ccc(Cl)cc4)CC3)CC2)c1 |  | inconclusive: 6.51 µM [cytotoxic, full curve]
47 | CCOCN(C(=O)Cn1cnc2ccccc21)c1c(C)cccc1CC |  | inconclusive: 7.31 µM [cytotoxic, partial curve, poor fit]
48 | COc1cc(CNCCSc2nnnn2C)ccc1OCc1ccc(C)cc1 | inactive: 5.91% | 

Row | SMILES | activity change, negative = cytotoxicity | Potency
49 | COc1cc(NC(=S)N2CCN(CCO)CC2)cc(OC)c1 | inactive: 3.67% | 
50 | O=C(NCCS(=O)(=O)N1CCN(c2cccc(Cl)c2)CC1)C1CCCC1 |  | inconclusive: 13 µM [cytotoxic, partial curve, poor fit]
51 | O=C(Nc1c(Cl)cc(Cl)cc1C(=O)NCCN1CCOCC1)c1ccc(Cl)cc1Cl |  | inconclusive: 5.17 µM [cytotoxic, partial curve]
52 | O=C(CN1CCN(Cc2cccc(C(F)(F)F)c2)CC1)NCC(=O)Nc1ccc(F)c(F)c1F |  | active: 23.1 µM
53 | O=C(c1ccc(C(F)(F)F)cc1)C1CCCN(Cc2cccn2-c2ncccn2)C1 (configuration not stated) | inactive: -0.644% | 
54 | CCOC(=O)c1nc(Nc2ccc(N3CCC(C)CC3)cc2)c2ccccc2n1 | inactive: 0% | 
55 | CCOC(=O)N1CCC(N(CCN(C)C)C(=S)Nc2cc(C)cc(C)c2)CC1 | inactive: 0% | 
56 | CCC(=O)c1ccc(OCC(=O)OCC(=O)c2cc(C)n(CC3CCCO3)c2C)cc1 (configuration not stated) |  | inconclusive: 18.4 µM [rising, single point]
57 | CCc1ccccc1NC(=O)CN(C)C(=O)CSc1nnc(Nc2ccc(C)cc2)s1 |  | active: 14.6 µM
58 | CCOc1cc2c(cc1O)CCC1C2CCC2(C)C(O)CCC12 (configuration not stated) |  | inconclusive: 0.206 µM [cytotoxic, full curve, poor fit]
59 | Cc1cc(C)cc(N2CC(c3nnc(NC(=O)c4ccco4)s3)CC2=O)c1 (configuration not stated) | inactive: -2.99% | 
60 | C=CCn1c(OCc2ccccc2)n[nH]c1=S | inactive: 6.65% | 
61 | O=C(c1ccccc1)N1CCCC(c2nc3c(nnn3Cc3ccc(F)cc3F)c(=O)[nH]2)C1 (configuration not stated) | inactive: -2.01% | 
62 | O=C(OCC(=O)N1CCCC1)c1c(Cl)cccc1Cl | inactive: 11.2% | 
63 | CCCCn1c(=NC(=O)c2c(-c3c(F)cccc3Cl)noc2C)c(C(=O)OCC)cc2c(=O)n3ccccc3nc21 | inactive: 22% | 
64 | Cc1ccc(C(NC(=O)NCCCN2CCOCC2)=C(Cl)Cl)cc1F |  | inconclusive: 35.5 µM [cytotoxic, single point]
65 | CC1CC(C)CN(S(=O)(=O)c2ccc(C(=O)OCC(=O)Nc3ccccc3)cc2)C1 (configuration not stated) | inactive: 20.6% | 
66 | O=C(O)c1ccccc1C(=O)OC1CCCC2CCCC21 (configuration not stated) | inactive: -5.34% | 
67 | O=C(Nc1nccs1)C1CCN(S(=O)(=O)c2cccnc2)CC1 |  | inconclusive: 18.4 µM [rising, single point]
68 | O=C(Cc1cccs1)NNC(=S)NC(=O)c1ccc(F)c(F)c1 |  | inconclusive: 29.1 µM [cytotoxic, single point]
69 | CCCCc1c(-c2ccc(F)cc2F)ncn1CCc1ccccc1OC |  | inconclusive: 16.4 µM [cytotoxic, partial curve]
70 | O=C(NCc1cccc(F)c1)c1ccc(CN2CC(=O)N3CCCCC3C2=O)cc1 (configuration not stated) | inactive: -20.7% | 
71 | COc1ccc(/C=c2/sc3n(c2=O)C(c2ccccc2OC)C2=C(N=3)c3ccccc3CC2)cc1O (configuration not stated) |  | inconclusive: 13 µM [cytotoxic, partial curve, poor fit]
72 | CCc1ccc(NC(=O)NCc2cccnc2)cc1 |  | inconclusive: 5.17 µM [rising, partial curve, poor fit]

3 compounds from above, arranged by number of heavy atoms, smallest number first:
Row | SMILES | activity change, negative = cytotoxicity | Potency
49 | COc1cc(NC(=S)N2CCN(CCO)CC2)cc(OC)c1 | inactive: 3.67% | 
70 | O=C(NCc1cccc(F)c1)c1ccc(CN2CC(=O)N3CCCCC3C2=O)cc1 (configuration not stated) | inactive: -20.7% | 
61 | O=C(c1ccccc1)N1CCCC(c2nc3c(nnn3Cc3ccc(F)cc3F)c(=O)[nH]2)C1 (configuration not stated) | inactive: -2.01% | 
